*: point of attachment. Pbf = Cc1c(C)c(S(=O)(=O)*)c(C)c2c1OC(C)(C)C2; Boc = CC(C)(C)OC(=O)*
Assay: peptide synthesis
Settings: whole synthesis, UPLC

**Q.** Which “crude HPLC purity” value does the source give for Boc-Y(Et)R(Pbf)AF-OH here?
**A.** The value was 92%.

Source: US11753440 (dated 2023)
